In the supplement of paper PMC4604168 (melanoma cell lines):
The list shows a part of the results. Single values are uncertain, as repeats are few or missing.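 Cells were imaged in 1,536-well plates, and nuclei stained with an antibody against cleaved PARP were counted against all DNA-stained nuclei to give the apoptosis fraction. Screening doses were chosen to leave most cells alive, and resting and induced cleaved-PARP levels differ strongly between cell lines.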

How the values were obtained:
Experiment in all cases: cleaved PARP positive nuclei fraction relative to DMSO control; melanoma cells; higher = more apoptosis
Conditions in all cases: library dose: low library concentration; 72 h
501Mel = test system: 501Mel
A101D = test system: A101D
A2058 = test system: A2058
A375 = test system: A375
C32 = test system: C32
CBRC008 = test system: CBRC008 (line from a melanoma biopsy)
CBRC013 = test system: CBRC013 (line from a melanoma biopsy)
CBRC014 = test system: CBRC014 (line from a melanoma biopsy)
CBRC016 = test system: CBRC016 (line from a melanoma biopsy)
CBRC017 = test system: CBRC017 (line from a melanoma biopsy)
COLO792 = test system: COLO792
COLO800 = test system: COLO800
COLO829 = test system: COLO829
G361 = test system: G361
IPC-298 = test system: IPC-298
IST-MEL1 = test system: IST-MEL1
LB2518-MEL = test system: LB2518-MEL
LOXIMVI = test system: LOXIMVI
MEL-HO = test system: MEL-HO

SMILES | cleaved PARP positive nuclei fraction (501Mel) | cleaved PARP positive nuclei fraction (A101D) | cleaved PARP positive nuclei fraction (A2058) | cleaved PARP positive nuclei fraction (A375) | cleaved PARP positive nuclei fraction (C32) | cleaved PARP positive nuclei fraction (CBRC008) | cleaved PARP positive nuclei fraction (CBRC013) | cleaved PARP positive nuclei fraction (CBRC014) | cleaved PARP positive nuclei fraction (CBRC016) | cleaved PARP positive nuclei fraction (CBRC017) | cleaved PARP positive nuclei fraction (COLO792) | cleaved PARP positive nuclei fraction (COLO800) | cleaved PARP positive nuclei fraction (COLO829) | cleaved PARP positive nuclei fraction (G361) | cleaved PARP positive nuclei fraction (IPC-298) | cleaved PARP positive nuclei fraction (IST-MEL1) | cleaved PARP positive nuclei fraction (LB2518-MEL) | cleaved PARP positive nuclei fraction (LOXIMVI) | cleaved PARP positive nuclei fraction (MEL-HO)
OCc1c[nH]c2ccccc12 [Indole-3-carbinol] + CO[C@@H]1[C@H](N(C)C(=O)c2ccccc2)C[C@H]2O[C@]1(C)n1c3ccccc3c3c4c(c5c6ccccc6n2c5c31)C(=O)NC4 [Midostaurin] (first compound 0.8 µM, partner dose 0.08 µM) | 150% | 205% | 113% | 76.1% | 141% | 142% | 100% | 170% | 368% | 77.2% | 96.3% | 124% | 296% | 111% | 101% | 159% | 208% | 52.6% | 73.8%
Cn1nnc2c(C(N)=O)ncn2c1=O [temozolomide] + Cc1cc(N2CCOCC2)cc2[nH]c(-c3c(NC[C@@H](O)c4cccc(Cl)c4)cc[nH]c3=O)nc12 [BMS536924] (first compound 2 µM, partner dose 0.2 µM) | 75% | 80.2% | 124% | 75.7% | 210% | 91.9% | 113% | 110% | 129% | 94.5% | 135% | 137% | 142% | 124% | 217% | 164% | 42.7% | 35.3% | 70.8%
Cc1nc(Nc2ncc(C(=O)Nc3c(C)cccc3Cl)s2)cc(N2CCN(CCO)CC2)n1 [dasatanib] + COc1cc2c(Oc3ccc4[nH]c(C)cc4c3F)ncnc2cc1OCCCN1CCCC1 [cediranib] (first compound 0.004 µM, partner dose 0.4 µM) | 202% | 93.4% | 198% | 187% | 289% | 91.8% | 146% | 182% | 50.5% | 293% | 128% | 65.8% | 87.5% | 108% | 41.1% | 115% | 91.5% | 683% | 245%
CC1(C)NC(=O)N(c2ccc([N+](=O)[O-])c(C(F)(F)F)c2)C1=O [nilutamide] + NC(=O)Nc1cc(-c2cccc(F)c2)sc1C(=O)N[C@H]1CCCNC1 [AZD7762] (first compound 1 µM, partner dose 0.02 µM) | 137% | 80.9% | 120% | 234% | 127% | 133% | 107% | 99.6% | 76.4% | 75.1% | 71% | 79.5% | 81.8% | 163% | 227% | 117% | 31.2% | 70.6% | 34%
Cc1nc(Nc2ncc(C(=O)Nc3c(C)cccc3Cl)s2)cc(N2CCN(CCO)CC2)n1 [dasatanib] + O=C(CCCCCCC(=O)Nc1ccccc1)NO [vorinostat] (first compound 0.004 µM, partner dose 0.08 µM) | 111% | 98.3% | 111% | 49.3% | 383% | 86.6% | 71.3% | 99.1% | 162% | 103% | 97.1% | 120% | 117% | 215% | 350% | 57.1% | 50.5% | 486% | 71.3%
Cc1nc(Nc2ncc(C(=O)Nc3c(C)cccc3Cl)s2)cc(N2CCN(CCO)CC2)n1 [dasatanib] + Cc1ccc(NC(=O)c2cccc(N(C)C)c2)cc1NC(=O)c1ccc(O)cc1 [ZM336372] (first compound 0.004 µM, partner dose 2 µM) | 92.8% | 92.3% | 225% | 67.5% | 217% | 108% | 98.8% | 102% | 62.8% | 118% | 105% | 125% | 66.7% | 108% | 564% | 182% | 65.9% | 125% | 108%
O=C(CCCCCCC(=O)Nc1ccccc1)NO [vorinostat] + O=C(Nc1cccc(Cl)c1)Nc1ncc(CCNc2ncnc3ccsc23)s1 [SNS314] (first compound 0.08 µM, partner dose 0.0008 µM) | 117% | 57.1% | 111% | 75.4% | 74.2% | 140% | 96.3% | 88.9% | 206% | 84.9% | 64.7% | 56.4% | 115% | 51.4% | 62% | 56.5% | 172% | 88.9% | 35.4%
C[C@]1(c2nc3c(C(N)=O)cccc3[nH]2)CCCN1 [Veliparib] + Cc1ccc(NC(=O)c2cccc(N(C)C)c2)cc1NC(=O)c1ccc(O)cc1 [ZM336372] (first compound 1.4 µM, partner dose 2 µM) | 99.8% | 50.2% | 47.1% | 51.9% | 101% | 49.1% | 191% | 166% | 90.6% | 293% | 55.2% | 27.3% | 49.7% | 96.1% | 108% | 42.7% | 105% | 97.8% | 89.5%
OCc1c[nH]c2ccccc12 [Indole-3-carbinol] + Cc1ccc(NC(=O)c2cccc(N(C)C)c2)cc1NC(=O)c1ccc(O)cc1 [ZM336372] (first compound 0.8 µM, partner dose 2 µM) | 81.7% | 36.7% | 139% | 148% | 68.4% | 191% | 97% | 104% | 252% | 93.3% | 74.9% | 90.2% | 60% | 56.2% | 109% | 47.1% | 53% | 56.9% | 71.8%
Cc1cc(N2CCOCC2)cc2[nH]c(-c3c(NC[C@@H](O)c4cccc(Cl)c4)cc[nH]c3=O)nc12 + OCCn1cc(-c2cnc3nnn(Cc4ccc5ncccc5c4)c3n2)cn1 [PF04217903] (first compound 0.2 µM, partner dose 1 µM) | 99.3% | 87% | 129% | 157% | 111% | 119% | 120% | 85.4% | 53.7% | 72.3% | 116% | 67.3% | 167% | 81.3% | 88.6% | 124% | 48% | 20.1% | 98.8%
COCC[n+]1c2c(n(Cc3cnccn3)c1C)C(=O)c1ccccc1C2=O + CC(C)(C)c1cnc(CSc2cnc(NC(=O)C3CCNCC3)s2)o1 [SNS-032] (first compound 0.0004 µM, partner dose 0.01 µM) | 340% | 55.5% | 195% | 148% | 149% | 707% | 138% | 94% | 81.5% | 99.3% | 219% | 170% | 57% | 123% | 297% | 78.9% | 49.5% | 44.7% | 38.2%
Nc1cccc2c1CN(C1CCC(=O)NC1=O)C2=O (configuration not stated) [lenalidomide] + O=C(CCCCCCC(=O)Nc1ccccc1)NO [vorinostat] (first compound 1 µM, partner dose 0.08 µM) | 74.3% | 71.9% | 62.7% | 130% | 52.3% | 194% | 162% | 74.2% | 122% | 101% | 105% | 80.7% | 80.8% | 76.7% | 79.6% | 59.5% | 83.7% | 65.6% | 86.6%
C[C@]1(c2nc3c(C(N)=O)cccc3[nH]2)CCCN1 [Veliparib] + O=C(CCCCCCC(=O)Nc1ccccc1)NO [vorinostat] (first compound 1.4 µM, partner dose 0.08 µM) | 260% | 90.7% | 94.1% | 135% | 175% | 83.4% | 78.9% | 75.3% | 142% | 106% | 74.5% | 45.9% | 42.8% | 109% | 90% | 135% | 52% | 82.2% | 156%
Cc1nc(Nc2ncc(C(=O)Nc3c(C)cccc3Cl)s2)cc(N2CCN(CCO)CC2)n1 [dasatanib] + CC(C)(C)c1cnc(CSc2cnc(NC(=O)C3CCNCC3)s2)o1 [SNS-032] (first compound 0.004 µM, partner dose 0.01 µM) | 110% | 789% | 116% | 106% | 189% | 80.9% | 150% | 88.7% | 88.2% | 69.8% | 121% | 43.6% | 113% | 110% | 165% | 57.7% | 101% | 165% | 151%
CO[C@@H]1[C@H](N(C)C(=O)c2ccccc2)C[C@H]2O[C@]1(C)n1c3ccccc3c3c4c(c5c6ccccc6n2c5c31)C(=O)NC4 [Midostaurin] + Cc1cc(N2CCOCC2)cc2[nH]c(-c3c(NC[C@@H](O)c4cccc(Cl)c4)cc[nH]c3=O)nc12 [BMS536924] (first compound 0.08 µM, partner dose 0.2 µM) | 94.4% | 256% | 140% | 165% | 316% | 148% | 122% | 95.2% | 383% | 96.6% | 86.3% | 169% | 112% | 154% | 50.6% | 244% | 116% | 57.1% | 29.3%
C#Cc1cccc(Nc2ncnc3cc(OCCOC)c(OCCOC)cc23)c1 [erlotinib] + O=C(CCCCCCC(=O)Nc1ccccc1)NO [vorinostat] (first compound 0.8 µM, partner dose 0.08 µM) | 96.5% | 88% | 87.1% | 35.8% | 153% | 236% | 163% | 75.3% | 75.4% | 97.2% | 173% | 33.9% | 93.6% | 69.8% | 65.6% | 101% | 107% | 229% | 145%
O=C(CCCCCCC(=O)Nc1ccccc1)NO [vorinostat] + C[C@@H]1CCN(C(=O)CC#N)C[C@@H]1N(C)c1ncnc2[nH]ccc12 [CP690550] (first compound 0.08 µM, partner dose 1 µM) | 84.5% | 78.7% | 67.8% | 208% | 79% | 109% | 87.5% | 81.1% | 99.9% | 104% | 128% | 104% | 57.1% | 136% | 184% | 239% | 157% | 60.2% | 274%
C=CCn1c(=O)c2cnc(Nc3ccc(N4CCN(C)CC4)cc3)nc2n1-c1cccc(C(C)(C)O)n1 + C[C@@H]1CCN(C(=O)CC#N)C[C@@H]1N(C)c1ncnc2[nH]ccc12 [CP690550] (first compound 0.02 µM, partner dose 1 µM) | 52% | 179% | 56.6% | 219% | 73.5% | 39.7% | 124% | 95% | 38.7% | 83% | 106% | 49% | 105% | 192% | 42.6% | 387% | 88.4% | 114% | 129%

Part of the list above in another layout.
SMILES	cleaved PARP positive nuclei fraction (501Mel)	cleaved PARP positive nuclei fraction (A101D)	cleaved PARP positive nuclei fraction (A2058)	cleaved PARP positive nuclei fraction (A375)	cleaved PARP positive nuclei fraction (C32)	cleaved PARP positive nuclei fraction (CBRC008)	cleaved PARP positive nuclei fraction (CBRC013)	cleaved PARP positive nuclei fraction (CBRC014)	cleaved PARP positive nuclei fraction (CBRC016)	cleaved PARP positive nuclei fraction (CBRC017)	cleaved PARP positive nuclei fraction (COLO792)	cleaved PARP positive nuclei fraction (COLO800)	cleaved PARP positive nuclei fraction (COLO829)	cleaved PARP positive nuclei fraction (G361)	cleaved PARP positive nuclei fraction (IPC-298)	cleaved PARP positive nuclei fraction (IST-MEL1)	cleaved PARP positive nuclei fraction (LB2518-MEL)	cleaved PARP positive nuclei fraction (LOXIMVI)	cleaved PARP positive nuclei fraction (MEL-HO)
C[C@]1(c2nc3c(C(N)=O)cccc3[nH]2)CCCN1 [Veliparib] + Cc1ccc(NC(=O)c2cccc(N(C)C)c2)cc1NC(=O)c1ccc(O)cc1 [ZM336372] (first compound 1.4 µM, partner dose 2 µM)	99.8%	50.2%	47.1%	51.9%	101%	49.1%	191%	166%	90.6%	293%	55.2%	27.3%	49.7%	96.1%	108%	42.7%	105%	97.8%	89.5%
OCc1c[nH]c2ccccc12 [Indole-3-carbinol] + Cc1ccc(NC(=O)c2cccc(N(C)C)c2)cc1NC(=O)c1ccc(O)cc1 [ZM336372] (first compound 0.8 µM, partner dose 2 µM)	81.7%	36.7%	139%	148%	68.4%	191%	97%	104%	252%	93.3%	74.9%	90.2%	60%	56.2%	109%	47.1%	53%	56.9%	71.8%
